Results from one PubChem assay

Data taken from PubChem BioAssay AID1745848, deposited by NCATS (2022).

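A cell-based luciferase reporter for ATXN2 expression, read by light output at 24 h, with a viability multiplex.
Compounds were tested as a dilution series from about 0.0037 to 57 µM.
The number is the fitted half-maximal inhibitory concentration (AC50); a lower value means a more potent inhibitor.
Calls come from curve class and activity score: actives score 40–100, while inconclusive compounds (weak, partial, poorly fitted or single-point curves) score 1–39.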

Values are in nM.
Every entry below has the call inconclusive.
These entries are mostly ones the record files as inconclusive; other results of the assay are not listed here.
Potencies fitted to partial, single-point or poorly fitting curves are rough.
Activity scores are not listed here.

SMILES | fitted potency (nM) | curve
[O-][n+]1c2ccccc2cc2ccccc21 | 12589 | inhibitor, partial curve, poor fit
COc1ccc(CCNC(=O)c2c(N)n(CCN3CCOCC3)c3nc4ccccc4nc23)cc1 | 25118 | inhibitor, single point
CC(=O)Oc1ccc2ccccc2c1C(NC(=O)Cc1ccccc1)c1ccccc1Cl (centres undefined) | 3162 | inhibitor, single point
N[C@@H](Cc1ccc(N(CCCl)CCCl)cc1)C(=O)O | 7080 | inhibitor, partial curve, poor fit
c1cnc2c(c1)ccc1cccnc12 | 4467 | inhibitor, full curve, poor fit
NS(=O)(=O)c1ccc(CCNC(=O)c2cc(-c3ccccn3)nc3ccc(Br)cc23)cc1 | 31622 | inhibitor, single point
COc1ccc2nc(C)cc(SCC(=O)N/N=C/c3ccc(O)cc3O)c2c1 | 6310 | inhibitor, partial curve, poor fit
CC1C(=O)C(C)C(c2cc(Br)ccc2O)NC1c1cc(Br)ccc1O (centres undefined) | 28183 | inhibitor, single point
COc1ccc(NS(=O)(=O)c2ccc(NC(=O)c3ccc(CN4CCOCC4)cc3)cc2)cc1 | 14125 | inhibitor, partial curve, poor fit
O=C(NCCc1csc(-c2ccc(Cl)cc2)n1)c1ccco1 | 15848 | inhibitor, partial curve, poor fit
O=C1CN(C(=O)c2c(F)cccc2F)C(c2ccc(F)cc2)c2cc(Br)ccc2N1 (centres undefined) | 2239 | inhibitor, partial curve
C=CCn1c(COc2ccccc2)nnc1SCC(=O)N/N=C/c1cc(Cl)ccc1O | 15848 | inhibitor, partial curve, poor fit
O=C(Nc1ccc(OC(F)(F)F)cc1)N1CCN(c2ccnc3cc(Cl)ccc23)CC1 | 11220 | inhibitor, partial curve, poor fit
O=C(CNC(=O)c1ccccc1)N/N=C/c1cc(Br)ccc1O | 14125 | inhibitor, partial curve, poor fit
CC(=O)Nc1ccc(CNc2nc3cc(-c4ccccc4C)sc3c(=O)n2C)cc1 | 10000 | inhibitor, single point
COc1cccc(/C=N/NC(=O)c2c(C)nc3ccc(Cl)cn23)c1O | 1412 | inhibitor, full curve, poor fit
CC1CC(Nc2ccccc2)c2ccccc2N1C(=O)c1cccnc1 (centres undefined) | 17782 | inhibitor, single point
COc1ccc(CCNC2=C(Cl)C(=O)N(CCc3ccccc3)C2=O)cc1OC | 3548 | inhibitor, partial curve
COc1ccc(CCC(=O)Nc2c(-c3ccc(N(C)C)cc3)[nH][nH]c2=O)cc1 | 8912 | inhibitor, partial curve, poor fit
CC1(C)CC(N2CCN(Cc3ccccc3)CC2)=CC(=[N+]2CCCCC2)C1 | 5012 | inhibitor, partial curve, poor fit
NS(=O)(=O)c1ccc(N2N=C(c3ccccc3)CC2c2cccc(Br)c2)cc1 (centres undefined) | 31622 | inhibitor, partial curve, poor fit
Cc1ccc(S(=O)(=O)/N=C(\Sc2ccccc2)c2ccccc2)cc1 | 22387 | inhibitor, partial curve, poor fit
COc1ccc(CCNC2=C(Cl)C(=O)N(Cc3ccccc3)C2=O)cc1OC | 2818 | inhibitor, partial curve
CN(C)c1ccccc1-c1cc(NC=O)c2ncc(-c3cccc(C(F)(F)F)c3)n2c1 | 3548 | inhibitor, partial curve
Cc1ccc(C(=O)N(C)CC(=O)Nc2ccc(Cl)c(C(F)(F)F)c2)cc1S(=O)(=O)N1CCCCC1 | 25118 | inhibitor, single point
COc1cc(OC)c(C(=O)C=Cc2ccc(OC)c(OC)c2)c(OC)c1 | 31622 | inhibitor, single point
NCCCCCc1nnc(SCc2ccccc2Cl)o1 | 2512 | inhibitor, partial curve
COc1ccc(CCn2c(C)cc(C(=O)CSc3nc(N)cc(=O)[nH]3)c2C)cc1 | 1995 | inhibitor, partial curve
Cc1sc2nc(C3CC3)nc(N3CCN(C(=O)c4ccc(F)cc4)CC3)c2c1C | 25118 | inhibitor, single point
Cc1cc(C)cc(OCC(=O)NNC(=S)NC(=O)C2CC2)c1 | 3162 | inhibitor, single point
CC(=O)c1c(C)oc2ccc(N(C(C)=O)S(=O)(=O)c3cccc4cccnc34)cc12 | 15848 | inhibitor, partial curve, poor fit

The first 2 entries again:

SMILES	fitted potency (nM)	curve
[O-][n+]1c2ccccc2cc2ccccc21	12589	inhibitor, partial curve, poor fit
COc1ccc(CCNC(=O)c2c(N)n(CCN3CCOCC3)c3nc4ccccc4nc23)cc1	25118	inhibitor, single point